The assay deals with D1/D2 core of wild-type human NVL (residues 254-857) (human) (UniProt O15381). Kind of assay: cryo-EM micrographs.

Results are given in words; binding and its absence hold for the method and conditions named. Some results given as binding are weak or reduced against the parent protein; the word gives no strength.

B1: D1/D2 core of wild-type human NVL (residues 254-857) (domain or fragment, UniProt O15381-1 254-856)
chain: GLEFQISNVKFEDVGGNDMTLKEVCKMLIHMRHPEVYHHLGVVPPRGVLLHGPPGCGKTLLAHAIAGELDLPILKVAAPEIVSGVSGESEQKLRELFEQAVSNAPCIIFIDEIDAITPKREVASKDMERRIVAQLLTCMDDLNNVAATARVLVIGATNRPDSLDPALRRAGRFDREICLGIPDEASRERILQTLCRKLRLPQAFDFCHLAHLTPGFVGADLMALCREAAMCAVNRVLMKLQEQQKKNPEMEDLPSKGVQEERLGTEPTSETQDELQRLLGLLRDQDPLSEEQMQGLCIELNDFIVALSSVQPSAKREGFVTVPNVTWADIGALEDIREELTMAILAPVRNPDQFKALGLVTPAGVLLAGPPGCGKTLLAKAVANESGLNFISVKGPELLNMYVGESERAVRQVFQRAKNSAPCVIFFDEVDALCPRRSDRETGASVRVVNQLLTEMDGLEARQQVFIMAATNRPDIIDPAILRPGRLDKTLFVGLPPPADRLAILKTITKNGTKPPLDADVNLEAIAGDLRCDCYTGADLSALVREASICALRQEMARQKSGNEKGELKVSHKHFEEAFKKVRSSISKKDQIMYERLQESLSR
Turning to B1, the binding result is given as “binds”.

For the origin of these results see doi:10.1101/2025.07.31.667081.
